From EP1383793B1 (priority 2000, dated 2001)
At least one compound was matched to its structure with a doubt left. Residues, ends and D or L forms follow the SMILES beside them. *: point of attachment. Biotin = O=C1N[C@H]2[C@H](CS[C@H]2CCCCC(=O)*)N1

Amino acid sequences for entries named in this document (tags omitted). Residues count along the entry.
UniProt P06213, 28-758 limits assumed: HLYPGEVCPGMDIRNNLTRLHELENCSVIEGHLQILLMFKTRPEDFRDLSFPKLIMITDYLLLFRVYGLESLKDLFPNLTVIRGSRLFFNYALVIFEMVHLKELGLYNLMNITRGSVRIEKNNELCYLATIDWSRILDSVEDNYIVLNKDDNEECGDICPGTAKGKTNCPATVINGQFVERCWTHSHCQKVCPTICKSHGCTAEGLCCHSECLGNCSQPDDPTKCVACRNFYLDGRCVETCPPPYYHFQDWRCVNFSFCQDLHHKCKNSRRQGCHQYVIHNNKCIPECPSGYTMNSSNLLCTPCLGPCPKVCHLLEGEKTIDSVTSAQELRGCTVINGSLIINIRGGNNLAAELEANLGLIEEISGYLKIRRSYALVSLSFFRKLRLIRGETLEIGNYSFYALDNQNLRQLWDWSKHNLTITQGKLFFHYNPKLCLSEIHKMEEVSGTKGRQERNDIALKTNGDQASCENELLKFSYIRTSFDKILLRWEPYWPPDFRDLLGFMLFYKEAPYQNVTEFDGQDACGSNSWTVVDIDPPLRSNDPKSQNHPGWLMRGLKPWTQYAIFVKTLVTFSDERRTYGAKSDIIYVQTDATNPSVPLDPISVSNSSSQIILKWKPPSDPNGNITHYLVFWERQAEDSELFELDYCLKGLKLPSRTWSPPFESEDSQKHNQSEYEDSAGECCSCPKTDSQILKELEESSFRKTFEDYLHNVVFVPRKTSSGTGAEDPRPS
UniProt P06213, 763-1382 limits assumed: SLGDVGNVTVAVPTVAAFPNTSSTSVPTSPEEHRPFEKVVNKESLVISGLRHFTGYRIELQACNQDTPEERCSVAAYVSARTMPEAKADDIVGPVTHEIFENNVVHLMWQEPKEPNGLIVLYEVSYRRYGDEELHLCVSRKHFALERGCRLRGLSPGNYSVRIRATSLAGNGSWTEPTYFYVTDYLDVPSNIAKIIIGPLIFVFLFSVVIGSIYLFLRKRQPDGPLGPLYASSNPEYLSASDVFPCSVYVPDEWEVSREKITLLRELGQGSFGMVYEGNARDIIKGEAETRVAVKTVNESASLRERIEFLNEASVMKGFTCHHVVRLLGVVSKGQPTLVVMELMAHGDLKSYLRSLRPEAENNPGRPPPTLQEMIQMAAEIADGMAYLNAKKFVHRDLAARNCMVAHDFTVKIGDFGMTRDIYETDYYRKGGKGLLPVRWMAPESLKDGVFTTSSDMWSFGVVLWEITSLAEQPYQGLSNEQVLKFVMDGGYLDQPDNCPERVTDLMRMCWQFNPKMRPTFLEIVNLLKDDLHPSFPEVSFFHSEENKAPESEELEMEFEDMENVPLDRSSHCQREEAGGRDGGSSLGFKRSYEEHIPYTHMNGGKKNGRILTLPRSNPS
UniProt P08069, 741-935 limits assumed: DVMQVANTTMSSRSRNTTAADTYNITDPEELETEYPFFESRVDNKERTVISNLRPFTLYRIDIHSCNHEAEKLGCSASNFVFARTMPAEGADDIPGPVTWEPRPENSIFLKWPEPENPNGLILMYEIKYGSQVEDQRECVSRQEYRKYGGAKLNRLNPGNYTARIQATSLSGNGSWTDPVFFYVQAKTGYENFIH
UniProt P08069, 31-736 limits assumed: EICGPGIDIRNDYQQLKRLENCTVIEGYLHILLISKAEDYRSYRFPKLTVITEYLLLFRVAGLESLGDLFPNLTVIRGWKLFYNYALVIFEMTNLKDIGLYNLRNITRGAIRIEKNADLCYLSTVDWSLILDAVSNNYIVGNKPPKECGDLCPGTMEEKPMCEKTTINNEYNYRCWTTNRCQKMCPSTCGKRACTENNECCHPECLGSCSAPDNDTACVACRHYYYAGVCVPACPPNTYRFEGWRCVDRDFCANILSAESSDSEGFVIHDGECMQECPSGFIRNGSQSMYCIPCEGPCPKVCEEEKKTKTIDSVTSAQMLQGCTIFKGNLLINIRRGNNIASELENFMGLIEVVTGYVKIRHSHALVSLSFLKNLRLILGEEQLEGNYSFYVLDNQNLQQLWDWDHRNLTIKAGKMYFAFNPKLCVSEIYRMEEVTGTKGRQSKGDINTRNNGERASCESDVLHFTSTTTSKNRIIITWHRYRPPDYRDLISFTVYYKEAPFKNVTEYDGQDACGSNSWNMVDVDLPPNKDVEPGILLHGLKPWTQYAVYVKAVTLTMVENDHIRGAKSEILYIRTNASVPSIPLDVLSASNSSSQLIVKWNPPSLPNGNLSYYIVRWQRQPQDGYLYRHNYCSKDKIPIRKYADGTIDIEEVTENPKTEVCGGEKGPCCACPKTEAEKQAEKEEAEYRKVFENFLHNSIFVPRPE

What was measured:
[1] = target: T1, human insulin receptor (HIR) (Homo sapiens, UniProt P06213); assay: 125I-insulin competition binding assay on solubilised purified receptor; conditions: read-out: Kd (µM) HIR
T1 construct: made in house

IGF-1R = target: T2, IGF-1R (Homo sapiens, UniProt P08069); assay: IGF-1R peptide assay, time-resolved FRET, competition with biotinylated 20E2 (IC50); type: binding
T2 construct: Soluble IGF-1R was obtained from R&D Systems; purchased R&D Systems 391-GR/CF

CC[C@H](C)[C@H](NC(=O)[C@H](C)NC(=O)[C@H](CC(=O)O)NC(=O)[C@H](Cc1ccc(O)cc1)NC(=O)[C@H](Cc1ccccc1)NC(=O)[C@H](CC(=O)O)NC(=O)[C@H](CCCCN)NC(=O)[C@H](Cc1ccc(O)cc1)NC(=O)[C@@H](N)CC(=O)O)C(=O)N[C@@H](CC(=O)O)C(=O)N[C@@H](CCC(N)=O)C(=O)N[C@@H](CC(C)C)C(=O)N[C@H](C(=O)N[C@@H](CCCNC(=N)N)C(=O)NCC(=O)N[C@@H](CO)C(=O)N[C@@H](C)C(=O)N[C@@H](CCCNC(=N)N)C(=O)N[C@@H](C)C(=O)NCC(=O)NCC(=O)N[C@H](C(=O)N[C@@H](CCCNC(=N)N)C(=O)N[C@@H](CC(=O)O)C(=O)N[C@@H](CCCCN)C(=O)N[C@@H](CCCCNC(=O)CCCC[C@@H]1SC[C@@H]2NC(=O)N[C@@H]21)C(N)=O)[C@@H](C)O)C(C)C [Clone 20E2] (H-DYKDFYDAIDQLVRGSARAGGTRDKK(Biotin)-NH2; N-terminus assumed)
Kd [1]: 0.25 µM | IC50 (IGF-1R): ~100 nM
